These are yes or no findings as the source states them, for the method shown. In cells and extracts the contact can be indirect. A yes stands for co-enrichment or nearness to the bait. Other partners may have been found.

For the assay, the target named is T1, S100P (human) (UniProt P25815).
T1 sequence: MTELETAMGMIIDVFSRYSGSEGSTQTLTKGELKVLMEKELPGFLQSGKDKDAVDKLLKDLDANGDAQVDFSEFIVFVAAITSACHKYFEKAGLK
In words: affinity purification with mass spectrometry; S100P pulled down from the cell membrane protein of S100P overexpressing CL1-0 cells; precipitate digested with trypsin and identified by nanoUPLC-MS/MS (LTQ Orbitrap, Mascot).

On to “integrin α7 (human (endogenous in CL1-0)) (receptor)”, for which the binding result is “binds”.
